This is one part of the list. The main result of the screen is listed elsewhere. These columns were measured beside it and carry no call. The list favours compounds with an active or inconclusive main result. Potencies come from curve fits of mixed quality, noted in brackets.

What is called AC50 is the concentration giving half of the maximal activity seen.

The test in a line: IkB Signaling. Particulars: ABC-DLBCL IkBa-CBG/CBR dual luciferase ratio (green luciferase fused to IkBa over red control in OCI-Ly3 lymphoma cells), 4 h; measured here: control luc red channel unless noted. The procedure, abridged: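 Luminescence ratio of IκBα-fused green versus native red beetle luciferase in OCI-Ly3 cells, 4 h post-doxycycline with compound; red signal alone, scaled from basal (0%) to zero light (-100%), flagged nonspecific or cytotoxic effects.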
Regarding `CCOC(=O)N1CCC(Nc2ncnc3c2cnn3-c2ccccc2)CC1`, the AC50 is 12.6 µM [falling, partial curve].
Turning to `CC(C)N1CCc2c(sc(NC(=O)c3ccc(S(=O)(=O)N(C)C4CCCCC4)cc3)c2C(N)=O)C1`, the AC50 is 20 µM [falling, partial curve, poor fit].
As to `Cn1nc(-c2ccccc2F)c2cc(C(=O)N3CCN(C(=O)c4ccco4)CC3)sc21`, the concentration at half-maximal activity (AC50) was 12.6 µM [falling, partial curve].
As for `COCCc1nn2c(=O)cc(COC(=O)c3ccco3)nc2s1`, the AC50 is 39.8 µM [falling, single point].
Take `COc1cccc(-c2nn(C)c3sc(C(=O)NCc4ccc(C)o4)cc23)c1`: the AC50 was 3.16 µM [falling, full curve].
Regarding `CSc1cccc(NC(=O)CN(c2cc(C)ccc2C)S(C)(=O)=O)c1`, the AC50 is 20 µM [falling, partial curve].
Next, `Cc1cccc(-c2nc(CS(=O)CC(=O)NCc3ccc(Cl)cc3)c(C)o2)c1` (stereo not given): 15.8 µM [falling, partial curve]; `COc1ccc(C2=C(C)C(=O)N(Cc3ccc(C(=O)Nc4ccc(F)cc4C)cc3)S2(=O)=O)cc1`: 1.58 µM [rising, full curve]; `CCN(CC)CCn1c(=N)n(CCOc2ccccc2Cl)c2ccccc21`: 31.6 µM [falling, single point].
On to `O=C(NCC(c1cccnc1)N1CCOCC1)C(=O)Nc1ccc(Cl)cc1` (stereo not given), for which the AC50 is 31.6 µM [falling, single point].
For the molecule `O=C(NCCC1=CCCCC1)C1CCN(C(=O)N2CCOc3ccccc32)CC1`, the AC50 is 12.6 µM [falling, partial curve].
Then `Clc1ccccc1-c1nnc2sc(-c3cccs3)nn12`, with 7.94 µM [falling, partial curve]; and `CCOc1ccc(NC(=O)Cn2c(=O)cc(C)c3c(C)nn(C)c32)cc1`, with 39.8 µM [falling, single point]; and `Cc1csc2nc(-c3cccc(NS(C)(=O)=O)c3)cn12`, with 25.1 µM [rising, partial curve, poor fit].
Consider `Cc1cc(C(=O)CN2C(=O)c3ccccc3S2(=O)=O)c(C)n1-c1ccccc1`, for which the AC50 was 39.8 µM [falling, single point].
Next, `O=C(CCCSc1nc2ccccc2s1)Nc1nccs1`: 20 µM [falling, partial curve]; `Cc1csc2nc(-c3ccc(NS(=O)(=O)c4cccc(F)c4)cc3)cn12`: 31.6 µM [falling, single point]; `Cc1c(CN(C)C(=O)c2cc(-c3ccccc3)nc3ccc(Br)cc23)cnn1C`: 10 µM [falling, partial curve].
In the case of `CCCOc1ccc(C2=NC(c3ccncc3)=Nc3ccc(C)cc3N2)cc1`, the AC50 is 25.1 µM [falling, single point].
Consider `Cc1ccc(-c2n[nH]c3c2C(c2ccccc2Cl)N(c2ccc(C(=O)O)cc2)C3=O)cc1` (stereo not given), for which the concentration at half-maximal activity (AC50) is 3.98 µM [falling, full curve].
Then `CSc1ncc(Cl)c(C(=O)Nc2c(C(=O)Nc3cccc(C)c3)oc3ccccc23)n1`, with 3.16 µM [rising, full curve]; and `O=C1C2C3C=CC(C3)C2C(=O)N1CNc1ccc(O)cc1` (stereo not given), with 31.6 µM [rising, single point] [measured here: IkB-luc green channel].
In the case of `O=C(CSc1nc2c(c(=O)[nH]1)CCCC2)Nc1ccccc1C(F)(F)F`, the AC50 is 1 µM [rising, full curve].
Take `CC(C)c1ccc(S(=O)(=O)c2cn(CC(=O)Nc3ccc(F)cc3)c3ccccc3c2=O)cc1`: the AC50 is 5.01 µM [falling, partial curve].
On to `COc1ccc(Cl)cc1NC(=O)CSc1nnc2[nH]c(=O)cc(C)n12`, for which the concentration at half-maximal activity (AC50) is 39.8 µM [falling, single point].
Regarding `COC(=O)c1cc(S(=O)(=O)N2CCN(c3cc(Cl)ccc3C)CC2)c[nH]1`, the half-maximal activity concentration (AC50) was 20 µM [falling, single point].
Regarding `COc1cc2c(=O)c(C(=O)c3ccc(F)cc3)cn(Cc3cccc(F)c3)c2cc1OC`, the AC50 was 20 µM [falling, partial curve].
As for `O=C(CN1CCN(Cc2ccc(F)cc2Cl)C1=O)NCCc1ccc(Cl)cc1`, the half-maximal activity concentration (AC50) was 15.8 µM [falling, single point].
For the molecule `O=C1CN(C(=O)c2ccc(S(=O)(=O)N3CCCC3)cc2)C(c2ccccc2)c2cc(Cl)ccc2N1` (stereo not given), the AC50 was 6.31 µM [falling, partial curve].
Regarding `Cc1ccc(C(=O)c2cn(CC(=O)NCc3ccccc3)c3nc(C)ccc3c2=O)cc1`, the AC50 is 0.00501 µM [falling, full curve, poor fit].
Then `COc1ccc(CCN(C)CCCOc2ccc(S(=O)(=O)c3[nH]c4ccccc4c3C(C)C)cc2)cc1OC`, with 39.8 µM [falling, partial curve, poor fit].
As to `Cc1cc(C)n(CC(=O)Nc2cc(F)ccc2F)c(=O)c1C#N`, the concentration at half-maximal activity (AC50) was 6.31 µM [falling, partial curve].
Take `Cc1ccc(O)c(Nc2nc3ccccc3c3nncn23)c1`: the AC50 was 10 µM [rising, partial curve].
Next, `COc1cccc(C(=O)Nc2ccc3nc4n(c(=O)c3c2)CCCCC4)c1`: 25.1 µM [falling, single point]; `CCOc1ccc(NC(=O)Cn2c(=O)cc(C)c3c(C)nn(-c4cccc(Cl)c4C)c32)cc1`: 0.0501 µM [rising, full curve, poor fit].
Regarding `CCOc1ccc(C(=O)N2CCN(CCc3ccccn3)CC2)cc1`, the concentration at half-maximal activity (AC50) was 5.01 µM [falling, partial curve].
On to `O=C(c1noc2c1CCCC2)N1CCN(Cc2ccccc2)CC1`, for which the AC50 was 10 µM [falling, partial curve].
As for `CCOc1ccc(Nc2nc(C)c(NC(=O)c3cccc(OC)c3)c(Nc3ccc(OCC)cc3)n2)cc1`, the AC50 is 15.8 µM [falling, partial curve].
Then `O=C(c1ccc2c(c1)OCO2)N1CCN(c2ccccc2)CC1`, with 10 µM [falling, partial curve]; and `CCOC(=O)C1=C(CN(CC)Cc2ccccc2)NC(=O)NC1c1ccc(OC(C)C)cc1` (stereo not given), with 25.1 µM [falling, partial curve].
